# This is a selection; strong and weak results do not stand in their true shares.
# Sequences of proteins named here, by UniProt entry; tags and fusion partners are left off. A change or cut given only in a name is not applied to a line headed by its entry.
# UniProt Q92945: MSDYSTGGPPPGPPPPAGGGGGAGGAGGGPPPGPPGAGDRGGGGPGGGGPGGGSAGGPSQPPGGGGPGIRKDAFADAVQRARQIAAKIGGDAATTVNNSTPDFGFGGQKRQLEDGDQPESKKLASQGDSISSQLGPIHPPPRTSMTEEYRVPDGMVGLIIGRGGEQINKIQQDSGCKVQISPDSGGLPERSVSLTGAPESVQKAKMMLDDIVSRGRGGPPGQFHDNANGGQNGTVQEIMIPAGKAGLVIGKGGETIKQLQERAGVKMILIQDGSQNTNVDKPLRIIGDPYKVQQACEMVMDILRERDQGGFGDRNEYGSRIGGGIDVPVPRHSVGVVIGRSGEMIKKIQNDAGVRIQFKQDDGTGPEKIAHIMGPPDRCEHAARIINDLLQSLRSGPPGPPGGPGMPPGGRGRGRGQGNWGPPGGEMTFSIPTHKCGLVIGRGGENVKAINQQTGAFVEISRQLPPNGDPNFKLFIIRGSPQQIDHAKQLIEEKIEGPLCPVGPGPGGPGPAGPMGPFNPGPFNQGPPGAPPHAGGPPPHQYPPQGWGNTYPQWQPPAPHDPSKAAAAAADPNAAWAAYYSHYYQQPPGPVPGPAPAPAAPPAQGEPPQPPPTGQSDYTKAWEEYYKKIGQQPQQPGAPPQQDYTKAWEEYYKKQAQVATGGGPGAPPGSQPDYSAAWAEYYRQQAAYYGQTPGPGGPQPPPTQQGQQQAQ
# UniProt Q92997: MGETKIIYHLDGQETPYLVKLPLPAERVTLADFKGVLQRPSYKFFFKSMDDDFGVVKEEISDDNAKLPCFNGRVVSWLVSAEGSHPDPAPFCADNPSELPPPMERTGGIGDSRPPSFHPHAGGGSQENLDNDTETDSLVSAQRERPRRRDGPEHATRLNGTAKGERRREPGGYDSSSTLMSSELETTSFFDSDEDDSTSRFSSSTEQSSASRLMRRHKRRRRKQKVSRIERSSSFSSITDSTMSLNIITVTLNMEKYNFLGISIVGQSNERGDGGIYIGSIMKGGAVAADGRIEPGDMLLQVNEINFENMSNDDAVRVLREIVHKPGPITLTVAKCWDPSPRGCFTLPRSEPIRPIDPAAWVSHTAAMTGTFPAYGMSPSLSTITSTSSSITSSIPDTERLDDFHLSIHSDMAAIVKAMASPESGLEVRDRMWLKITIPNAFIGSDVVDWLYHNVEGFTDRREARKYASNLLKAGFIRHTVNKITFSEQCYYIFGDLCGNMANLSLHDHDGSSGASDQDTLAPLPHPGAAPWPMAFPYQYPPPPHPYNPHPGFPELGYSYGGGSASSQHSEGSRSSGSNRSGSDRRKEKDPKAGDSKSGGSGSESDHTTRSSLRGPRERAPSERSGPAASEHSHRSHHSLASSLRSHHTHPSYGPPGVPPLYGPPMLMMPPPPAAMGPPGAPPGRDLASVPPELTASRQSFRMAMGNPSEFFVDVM
# UniProt Q92782, whole entry, looked up: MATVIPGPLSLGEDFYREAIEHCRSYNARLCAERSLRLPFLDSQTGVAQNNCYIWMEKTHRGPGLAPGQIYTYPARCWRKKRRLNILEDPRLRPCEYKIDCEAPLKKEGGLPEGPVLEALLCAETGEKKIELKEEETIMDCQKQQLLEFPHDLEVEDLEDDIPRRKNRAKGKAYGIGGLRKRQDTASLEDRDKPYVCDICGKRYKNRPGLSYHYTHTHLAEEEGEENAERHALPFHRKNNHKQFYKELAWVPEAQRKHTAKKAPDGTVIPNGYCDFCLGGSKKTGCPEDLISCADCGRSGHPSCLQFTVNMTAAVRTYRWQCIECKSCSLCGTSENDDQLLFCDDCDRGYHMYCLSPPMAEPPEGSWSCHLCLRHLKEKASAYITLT
# UniProt Q96B54: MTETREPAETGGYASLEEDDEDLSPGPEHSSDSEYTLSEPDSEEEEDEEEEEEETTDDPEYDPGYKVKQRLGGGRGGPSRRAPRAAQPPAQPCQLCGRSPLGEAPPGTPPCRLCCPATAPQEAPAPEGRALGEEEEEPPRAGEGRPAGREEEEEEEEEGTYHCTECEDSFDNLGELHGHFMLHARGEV
# UniProt Q92538, whole entry, looked up: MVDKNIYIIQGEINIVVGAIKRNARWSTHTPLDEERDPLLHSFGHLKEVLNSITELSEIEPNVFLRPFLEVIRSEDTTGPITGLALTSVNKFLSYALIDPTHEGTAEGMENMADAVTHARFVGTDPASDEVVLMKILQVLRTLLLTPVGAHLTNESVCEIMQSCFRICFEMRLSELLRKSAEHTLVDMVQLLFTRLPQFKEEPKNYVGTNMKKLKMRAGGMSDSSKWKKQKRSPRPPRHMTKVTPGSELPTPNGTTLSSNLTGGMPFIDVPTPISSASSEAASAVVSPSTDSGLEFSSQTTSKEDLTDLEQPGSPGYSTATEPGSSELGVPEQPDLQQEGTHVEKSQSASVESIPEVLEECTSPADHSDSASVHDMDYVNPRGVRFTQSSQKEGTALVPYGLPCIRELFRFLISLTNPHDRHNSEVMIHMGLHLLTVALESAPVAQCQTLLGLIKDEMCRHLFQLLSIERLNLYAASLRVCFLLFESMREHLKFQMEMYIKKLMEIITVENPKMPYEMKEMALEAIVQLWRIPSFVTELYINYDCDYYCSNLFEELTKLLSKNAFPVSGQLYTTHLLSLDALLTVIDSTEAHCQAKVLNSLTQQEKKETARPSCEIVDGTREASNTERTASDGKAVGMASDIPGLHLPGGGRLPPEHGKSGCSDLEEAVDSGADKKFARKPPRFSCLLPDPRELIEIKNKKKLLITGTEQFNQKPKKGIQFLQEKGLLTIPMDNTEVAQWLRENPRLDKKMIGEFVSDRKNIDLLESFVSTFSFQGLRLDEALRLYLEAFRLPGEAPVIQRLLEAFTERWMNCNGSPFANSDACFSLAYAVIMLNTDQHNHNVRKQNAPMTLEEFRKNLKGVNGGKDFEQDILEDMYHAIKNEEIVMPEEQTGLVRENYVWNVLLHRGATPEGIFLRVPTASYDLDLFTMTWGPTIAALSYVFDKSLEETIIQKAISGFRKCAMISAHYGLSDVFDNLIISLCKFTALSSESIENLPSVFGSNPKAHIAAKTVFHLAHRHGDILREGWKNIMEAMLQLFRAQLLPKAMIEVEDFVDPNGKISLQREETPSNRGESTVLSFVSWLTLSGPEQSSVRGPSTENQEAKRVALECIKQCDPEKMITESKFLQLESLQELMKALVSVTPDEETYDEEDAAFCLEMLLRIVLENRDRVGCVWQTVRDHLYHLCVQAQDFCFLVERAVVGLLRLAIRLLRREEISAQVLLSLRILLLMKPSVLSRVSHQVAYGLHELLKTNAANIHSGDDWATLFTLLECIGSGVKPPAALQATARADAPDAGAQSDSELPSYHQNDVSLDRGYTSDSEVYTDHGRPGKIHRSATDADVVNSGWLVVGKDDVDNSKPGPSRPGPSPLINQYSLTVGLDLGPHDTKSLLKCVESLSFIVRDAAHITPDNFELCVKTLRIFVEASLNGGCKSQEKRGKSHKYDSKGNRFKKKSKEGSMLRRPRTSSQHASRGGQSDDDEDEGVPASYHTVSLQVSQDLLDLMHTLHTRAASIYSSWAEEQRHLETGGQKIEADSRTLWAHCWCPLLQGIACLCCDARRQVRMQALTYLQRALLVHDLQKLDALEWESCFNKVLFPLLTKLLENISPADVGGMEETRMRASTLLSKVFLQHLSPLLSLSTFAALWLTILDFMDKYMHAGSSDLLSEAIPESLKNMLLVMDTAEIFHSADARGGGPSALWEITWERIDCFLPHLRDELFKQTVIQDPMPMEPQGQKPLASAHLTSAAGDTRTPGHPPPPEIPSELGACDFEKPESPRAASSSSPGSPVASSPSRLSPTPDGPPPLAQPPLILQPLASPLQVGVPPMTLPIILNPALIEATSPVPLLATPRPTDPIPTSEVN
# UniProt Q96EP0: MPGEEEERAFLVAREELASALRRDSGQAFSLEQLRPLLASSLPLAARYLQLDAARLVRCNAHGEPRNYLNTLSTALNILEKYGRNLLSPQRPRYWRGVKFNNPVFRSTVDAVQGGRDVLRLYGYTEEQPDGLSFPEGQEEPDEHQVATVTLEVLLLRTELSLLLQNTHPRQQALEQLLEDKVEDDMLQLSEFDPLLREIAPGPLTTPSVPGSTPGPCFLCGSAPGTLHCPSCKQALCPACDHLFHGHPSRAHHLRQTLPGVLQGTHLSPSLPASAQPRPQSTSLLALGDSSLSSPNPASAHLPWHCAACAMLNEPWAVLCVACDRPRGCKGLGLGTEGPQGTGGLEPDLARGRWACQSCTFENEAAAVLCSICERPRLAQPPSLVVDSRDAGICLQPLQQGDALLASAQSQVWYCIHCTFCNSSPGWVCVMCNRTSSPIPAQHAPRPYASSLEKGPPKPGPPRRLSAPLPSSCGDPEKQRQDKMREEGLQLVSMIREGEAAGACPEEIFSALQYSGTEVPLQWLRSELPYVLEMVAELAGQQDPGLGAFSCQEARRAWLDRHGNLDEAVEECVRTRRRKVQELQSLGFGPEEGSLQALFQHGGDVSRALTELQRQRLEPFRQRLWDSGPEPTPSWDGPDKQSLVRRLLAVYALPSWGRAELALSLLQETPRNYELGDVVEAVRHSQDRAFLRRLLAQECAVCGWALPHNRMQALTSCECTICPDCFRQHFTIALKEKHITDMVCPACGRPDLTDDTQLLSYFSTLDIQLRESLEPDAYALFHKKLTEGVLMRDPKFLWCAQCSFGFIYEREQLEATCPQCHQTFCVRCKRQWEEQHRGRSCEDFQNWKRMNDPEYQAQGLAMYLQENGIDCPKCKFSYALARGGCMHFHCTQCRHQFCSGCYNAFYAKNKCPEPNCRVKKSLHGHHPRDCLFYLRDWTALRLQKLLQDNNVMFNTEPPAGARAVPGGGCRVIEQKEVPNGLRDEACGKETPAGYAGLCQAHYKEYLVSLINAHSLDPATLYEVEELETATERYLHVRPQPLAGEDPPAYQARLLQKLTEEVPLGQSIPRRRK
# UniProt Q96EP5: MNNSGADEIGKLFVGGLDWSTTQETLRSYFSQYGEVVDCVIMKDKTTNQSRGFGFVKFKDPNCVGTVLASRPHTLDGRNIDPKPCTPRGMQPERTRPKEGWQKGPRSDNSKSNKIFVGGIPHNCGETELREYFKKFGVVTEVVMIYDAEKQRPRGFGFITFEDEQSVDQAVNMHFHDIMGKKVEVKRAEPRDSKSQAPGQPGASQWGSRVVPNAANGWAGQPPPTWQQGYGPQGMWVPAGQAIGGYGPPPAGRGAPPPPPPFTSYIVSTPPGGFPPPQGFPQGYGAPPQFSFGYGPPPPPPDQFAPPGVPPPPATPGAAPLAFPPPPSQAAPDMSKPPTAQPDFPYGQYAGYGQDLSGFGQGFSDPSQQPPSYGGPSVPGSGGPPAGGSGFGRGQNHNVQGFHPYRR
# UniProt Q96C19: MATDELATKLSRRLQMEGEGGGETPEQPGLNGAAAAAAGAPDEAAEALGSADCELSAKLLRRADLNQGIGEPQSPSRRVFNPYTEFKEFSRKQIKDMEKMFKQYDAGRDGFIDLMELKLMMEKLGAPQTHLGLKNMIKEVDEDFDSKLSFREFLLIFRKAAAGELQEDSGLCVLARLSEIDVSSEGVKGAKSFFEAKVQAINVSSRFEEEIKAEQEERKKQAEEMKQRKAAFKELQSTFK
# UniProt Q96GX9: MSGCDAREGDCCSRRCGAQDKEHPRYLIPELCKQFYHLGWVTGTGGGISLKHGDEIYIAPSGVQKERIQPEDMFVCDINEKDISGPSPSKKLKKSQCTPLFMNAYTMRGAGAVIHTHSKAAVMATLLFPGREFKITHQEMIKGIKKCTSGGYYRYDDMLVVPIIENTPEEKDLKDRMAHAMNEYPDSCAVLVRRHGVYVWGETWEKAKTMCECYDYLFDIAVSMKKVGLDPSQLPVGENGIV
# UniProt Q96CS3: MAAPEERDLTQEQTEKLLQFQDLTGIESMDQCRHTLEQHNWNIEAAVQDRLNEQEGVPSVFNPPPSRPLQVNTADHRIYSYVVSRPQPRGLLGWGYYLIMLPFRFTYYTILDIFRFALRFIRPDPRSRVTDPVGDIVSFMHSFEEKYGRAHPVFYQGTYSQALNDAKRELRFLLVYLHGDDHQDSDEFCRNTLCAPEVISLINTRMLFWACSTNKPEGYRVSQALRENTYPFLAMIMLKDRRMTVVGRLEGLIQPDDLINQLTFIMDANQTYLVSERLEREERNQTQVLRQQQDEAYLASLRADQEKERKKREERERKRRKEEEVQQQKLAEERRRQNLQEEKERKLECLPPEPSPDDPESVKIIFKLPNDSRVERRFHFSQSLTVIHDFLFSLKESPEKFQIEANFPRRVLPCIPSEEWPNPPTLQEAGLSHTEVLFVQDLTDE
# UniProt Q96AG4: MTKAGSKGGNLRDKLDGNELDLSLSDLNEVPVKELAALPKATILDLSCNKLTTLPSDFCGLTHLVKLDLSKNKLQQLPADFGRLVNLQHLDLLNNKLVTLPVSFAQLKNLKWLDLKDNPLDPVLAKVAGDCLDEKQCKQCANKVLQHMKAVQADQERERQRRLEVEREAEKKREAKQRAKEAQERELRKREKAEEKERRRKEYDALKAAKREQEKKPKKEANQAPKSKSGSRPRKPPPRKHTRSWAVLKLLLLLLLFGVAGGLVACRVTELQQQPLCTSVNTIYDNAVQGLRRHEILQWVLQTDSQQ
# Compound: COC(=O)C#Cc1ccccc1 [methyl 3-phenylpropiolate]
# Test: log2 ratio of iodoacetamide-alkyne labeling of the cysteine site, DMSO over compound (competition); higher = stronger covalent engagement of the cysteine by the compound, active = 1 or more
# Conditions: 500 µM; treatment time 1 h; system: HEK293T cell lysate
# Procedure, shortened: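 Reporter intensities give each cysteine's log2 competition ratio as the mean of control channels over the mean of compound channels. The samples were HEK293T lysate (2 mg/mL) given vehicle or electrophile (500 µM, 1 h, ambient temperature), then iodoacetamide alkyne (1 h), followed by click coupling to sCIP-TMT reagents, pooling, trypsin digestion overnight at 37 °C, streptavidin enrichment, acid elution, Orbitrap Eclipse LC-MS/MS with FAIMS and FragPipe quantification. Duplicate channels and three replicates were run, and cysteines quantified in only one replicate were discarded.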
row,Target,log2 ratio of iodoacetamide-alkyne labeling
1,ACD C406 (UniProt Q96AP0),inactive: 0.713
2,TUBGCP3 C18 (UniProt Q96CW5),inactive: 0.523
3,SMARCD1 C460 (UniProt Q96GM5),inactive: 0.137
4,KHSRP C436 (UniProt Q92945),inactive: 0.136
5,DVL3 C69 (UniProt Q92997),inactive: 0.272
6,DPF1 C149 (UniProt Q92782),inactive: 0.289
7,UBXN4 C186 (UniProt Q92575),inactive: 0.474
8,DPF2 C298 (UniProt Q92785),inactive: 0.175
9,ZNF428 C114 (UniProt Q96B54),inactive: 0.0848
10,NDRG1 C289 (UniProt Q92597),inactive: 0.326
11,GBF1 C685 (UniProt Q92538),inactive: 0.144
12,ARPC1A C13 (UniProt Q92747),inactive: -0.0704
13,POM121 C217 (UniProt Q96HA1),inactive: 0.605
14,RNF31 C504 (UniProt Q96EP0),inactive: 0.285
15,EDC3 C91 (UniProt Q96F86),inactive: 0.374
16,DAZAP1 C63 (UniProt Q96EP5),inactive: 0.183
17,EFHD2 C172 (UniProt Q96C19),inactive: 0.169
18,PYCR2 C95 (UniProt Q96C36),inactive: 0.156
19,UniProt Q96BN8_C347,inactive: 0.256

row,Target,log2 ratio of iodoacetamide-alkyne labeling
1,TOPBP1 C1166 (UniProt Q92547),inactive: 0.385
2,APIP C97 (UniProt Q96GX9),inactive: 0.129
3,FAF2 C414 (UniProt Q96CS3),inactive: 0.0814
4,LRRC59 C48 (UniProt Q96AG4),inactive: 0.199
5,MASTL C285 (UniProt Q96GX5),active: 1.02
6,UniProt Q96BD8_C10,inactive: 0.363
7,ANP32B C114 (UniProt Q92688),inactive: 0.0691
8,RAD50 C133 (UniProt Q92878),inactive: 0.678
9,UniProt Q96EH3_C233,inactive: -0.205
10,KHSRP C379 (UniProt Q92945),inactive: 0.0013
11,PHF3 C627 (UniProt Q92576),inactive: 0.687
12,AKAP1 C102 (UniProt Q92667),inactive: 0.334
13,DPF2 C295 (UniProt Q92785),inactive: 0.175
14,UniProt Q92616_C648,inactive: 0.135
15,CMBL C10 (UniProt Q96DG6),inactive: 0.143
16,HSPH1 C310 (UniProt Q92598),inactive: -0.0673
17,PHF3 C1771 (UniProt Q92576),inactive: 0.872
18,DVL3 C92 (UniProt Q92997),inactive: 0.396

# Looked up above:
# CMBL C10 (UniProt Q96DG6) | log2 ratio of iodoacetamide-alkyne labeling: inactive: 0.143
# DAZAP1 C63 (UniProt Q96EP5) | log2 ratio of iodoacetamide-alkyne labeling: inactive: 0.183
# EDC3 C91 (UniProt Q96F86) | log2 ratio of iodoacetamide-alkyne labeling: inactive: 0.374

# Reference: the supplement of paper PMC11006884
